# Measured values as given in the supplement of paper PMC6411743.
# ± gives the standard deviation of the averaged measurements. This is a selection; strong and weak results do not stand in their true shares.
# Experiments:
# Assay in all cases: NP40-soluble protein abundance relative to vehicle (solubility fold change) (ratio); higher = more soluble protein in presence of ATP
# ABHD6 = biological target: T1, ABHD6 (UniProt Q9BV23)
# T1 sequence (whole entry): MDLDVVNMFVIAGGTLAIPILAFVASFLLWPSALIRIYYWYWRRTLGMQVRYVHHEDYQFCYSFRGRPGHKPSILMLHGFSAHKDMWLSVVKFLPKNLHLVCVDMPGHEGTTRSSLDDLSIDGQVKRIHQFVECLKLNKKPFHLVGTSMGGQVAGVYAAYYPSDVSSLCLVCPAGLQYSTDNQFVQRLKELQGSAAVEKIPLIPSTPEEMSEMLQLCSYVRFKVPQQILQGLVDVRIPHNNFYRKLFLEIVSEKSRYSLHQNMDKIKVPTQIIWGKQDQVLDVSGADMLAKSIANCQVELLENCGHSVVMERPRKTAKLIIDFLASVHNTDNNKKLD
# Summary of the method: (§1)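 Eight concentrations, 0.1 to 10 mM, were tested on Jurkat crude lysate for 10 min at room temperature and then 3 min at 37 °C, in three independent experiments. The lysate was solubilised with 0.8% NP40 and benzonase, ultracentrifuged, and the supernatant TMT-labelled for LC-MS/MS. Each value is the fold change against the detergent-processed vehicle in its own replicate, from vsn-normalised intensities.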
# ADAT1 = biological target: T2, ADAT1 (UniProt Q9BUB4)
# T2 sequence (whole entry): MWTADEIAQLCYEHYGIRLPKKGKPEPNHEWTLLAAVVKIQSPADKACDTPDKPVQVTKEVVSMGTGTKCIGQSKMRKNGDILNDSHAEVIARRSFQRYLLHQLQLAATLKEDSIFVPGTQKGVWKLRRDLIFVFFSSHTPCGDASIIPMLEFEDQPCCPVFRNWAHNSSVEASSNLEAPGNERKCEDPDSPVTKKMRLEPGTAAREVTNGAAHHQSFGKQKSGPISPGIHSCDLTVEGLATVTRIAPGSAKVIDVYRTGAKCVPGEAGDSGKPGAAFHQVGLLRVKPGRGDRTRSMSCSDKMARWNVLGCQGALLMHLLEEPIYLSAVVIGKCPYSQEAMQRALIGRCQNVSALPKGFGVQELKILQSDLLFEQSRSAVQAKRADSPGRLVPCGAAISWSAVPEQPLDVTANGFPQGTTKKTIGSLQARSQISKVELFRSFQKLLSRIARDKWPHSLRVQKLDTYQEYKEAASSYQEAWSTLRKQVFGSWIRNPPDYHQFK
# Summary of the method: as §1
# DNAJC2 = biological target: T3, DNAJC2 (UniProt Q99543)
# T3 sequence (whole entry): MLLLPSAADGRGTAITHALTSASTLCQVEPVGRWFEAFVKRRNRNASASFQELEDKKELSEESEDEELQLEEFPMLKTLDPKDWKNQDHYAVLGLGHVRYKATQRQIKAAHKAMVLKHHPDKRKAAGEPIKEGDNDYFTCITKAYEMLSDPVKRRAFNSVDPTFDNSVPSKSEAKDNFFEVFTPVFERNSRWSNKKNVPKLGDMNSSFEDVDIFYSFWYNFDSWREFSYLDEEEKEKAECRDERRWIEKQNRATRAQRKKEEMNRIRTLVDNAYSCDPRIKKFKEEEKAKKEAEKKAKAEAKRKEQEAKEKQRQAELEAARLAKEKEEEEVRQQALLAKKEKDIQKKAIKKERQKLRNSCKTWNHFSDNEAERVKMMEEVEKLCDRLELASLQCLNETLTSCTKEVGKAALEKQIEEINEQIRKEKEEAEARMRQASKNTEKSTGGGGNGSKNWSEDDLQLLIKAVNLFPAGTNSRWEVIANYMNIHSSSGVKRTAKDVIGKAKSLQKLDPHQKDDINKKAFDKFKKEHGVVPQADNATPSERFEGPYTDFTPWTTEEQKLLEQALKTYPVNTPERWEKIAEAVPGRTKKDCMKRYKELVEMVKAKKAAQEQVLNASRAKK
# Summary of the method: as §1
# DOHH = biological target: T4, DOHH (UniProt Q9BU89)
# T4 sequence (whole entry): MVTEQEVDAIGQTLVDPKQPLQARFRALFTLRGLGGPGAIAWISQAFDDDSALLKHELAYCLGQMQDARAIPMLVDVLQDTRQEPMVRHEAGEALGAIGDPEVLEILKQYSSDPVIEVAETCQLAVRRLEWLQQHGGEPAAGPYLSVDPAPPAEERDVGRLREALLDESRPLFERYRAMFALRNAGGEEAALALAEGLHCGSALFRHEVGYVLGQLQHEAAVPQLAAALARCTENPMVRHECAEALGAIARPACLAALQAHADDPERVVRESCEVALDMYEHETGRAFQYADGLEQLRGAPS
# Summary of the method: as §1
# EFHD1 = biological target: T5, EFHD1 (UniProt Q9BUP0)
# T5 sequence (whole entry): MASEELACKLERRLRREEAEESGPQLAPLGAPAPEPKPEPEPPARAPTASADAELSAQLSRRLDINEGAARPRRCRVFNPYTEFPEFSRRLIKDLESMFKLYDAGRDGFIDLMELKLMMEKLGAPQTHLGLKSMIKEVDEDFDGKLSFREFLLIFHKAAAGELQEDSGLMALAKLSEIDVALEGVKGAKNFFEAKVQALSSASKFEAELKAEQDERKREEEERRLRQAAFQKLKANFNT
# Summary of the method: as §1
# FUNDC2 = biological target: T6, FUNDC2 (UniProt Q9BWH2)
# T6 sequence (whole entry): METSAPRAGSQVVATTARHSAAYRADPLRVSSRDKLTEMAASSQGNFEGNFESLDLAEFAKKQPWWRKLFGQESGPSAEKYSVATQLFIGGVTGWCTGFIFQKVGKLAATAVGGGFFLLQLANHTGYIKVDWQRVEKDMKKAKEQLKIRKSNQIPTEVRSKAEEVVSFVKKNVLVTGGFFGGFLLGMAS
# Summary of the method: as §1
# IFIH1 = biological target: T7, IFIH1 (UniProt Q9BYX4)
# T7 sequence (whole entry): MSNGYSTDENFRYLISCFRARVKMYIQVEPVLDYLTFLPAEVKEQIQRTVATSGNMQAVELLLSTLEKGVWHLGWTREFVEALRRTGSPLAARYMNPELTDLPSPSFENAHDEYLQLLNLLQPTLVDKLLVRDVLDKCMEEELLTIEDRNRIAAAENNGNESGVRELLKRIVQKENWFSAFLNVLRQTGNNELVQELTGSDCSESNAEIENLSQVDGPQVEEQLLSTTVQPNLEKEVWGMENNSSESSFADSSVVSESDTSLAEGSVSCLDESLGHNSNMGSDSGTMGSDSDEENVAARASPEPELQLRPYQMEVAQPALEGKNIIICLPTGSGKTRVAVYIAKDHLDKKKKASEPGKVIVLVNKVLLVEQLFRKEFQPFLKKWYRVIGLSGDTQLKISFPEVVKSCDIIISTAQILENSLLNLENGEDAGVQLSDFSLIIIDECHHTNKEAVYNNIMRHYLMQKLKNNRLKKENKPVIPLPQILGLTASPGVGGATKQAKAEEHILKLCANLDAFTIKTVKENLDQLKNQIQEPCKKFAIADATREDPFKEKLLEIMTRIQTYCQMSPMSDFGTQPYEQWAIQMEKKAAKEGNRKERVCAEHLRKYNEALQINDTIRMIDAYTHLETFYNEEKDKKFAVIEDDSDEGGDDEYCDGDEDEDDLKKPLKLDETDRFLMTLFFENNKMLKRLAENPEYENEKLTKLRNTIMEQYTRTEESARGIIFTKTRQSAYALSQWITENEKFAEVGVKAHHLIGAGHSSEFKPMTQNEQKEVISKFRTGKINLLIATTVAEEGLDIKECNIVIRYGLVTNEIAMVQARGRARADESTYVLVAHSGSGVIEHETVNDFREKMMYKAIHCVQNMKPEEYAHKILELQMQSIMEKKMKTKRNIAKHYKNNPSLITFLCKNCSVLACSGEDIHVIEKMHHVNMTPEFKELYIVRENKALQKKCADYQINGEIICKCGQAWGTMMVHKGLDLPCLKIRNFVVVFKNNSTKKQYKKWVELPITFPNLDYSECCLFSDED
# Summary of the method: as §1
compound,measurement,setting,value
Nc1ncnc2c1ncn2[C@@H]1O[C@H](COP(=O)(O)OP(=O)(O)OP(=O)(O)O)[C@@H](O)[C@H]1O [adenosine triphosphate],NP40-soluble protein abundance,ABHD6; concentration: 1mM,1.04 ± 0.084
same,NP40-soluble protein abundance,ABHD6; concentration: 2mM,1.11 ± 0.042
same,NP40-soluble protein abundance,ABHD6; concentration: 4mM,0.975 ± 0.051
same,NP40-soluble protein abundance,ABHD6; concentration: 6mM,0.952 ± 0.038
same,NP40-soluble protein abundance,ABHD6; concentration: 8mM,1.1 ± 0.15
same,NP40-soluble protein abundance,ABHD6; concentration: 10mM,0.972 ± 0.075
same,NP40-soluble protein abundance,ADAT1; concentration: 1mM,1.05 ± 0.087
same,NP40-soluble protein abundance,ADAT1; concentration: 2mM,1.08 ± 0.06
same,NP40-soluble protein abundance,ADAT1; concentration: 4mM,1.12 ± 0.15
same,NP40-soluble protein abundance,ADAT1; concentration: 6mM,1.03 ± 0.12
same,NP40-soluble protein abundance,ADAT1; concentration: 8mM,1.04 ± 0.11
same,NP40-soluble protein abundance,ADAT1; concentration: 10mM,1.05 ± 0.095
same,NP40-soluble protein abundance,DNAJC2; concentration: 1mM,0.986 ± 0.046
same,NP40-soluble protein abundance,DNAJC2; concentration: 2mM,1 ± 0.012
same,NP40-soluble protein abundance,DNAJC2; concentration: 4mM,0.9869 ± 0.008
same,NP40-soluble protein abundance,DNAJC2; concentration: 6mM,1.011 ± 0.0035
same,NP40-soluble protein abundance,DNAJC2; concentration: 8mM,0.962 ± 0.018
same,NP40-soluble protein abundance,DNAJC2; concentration: 10mM,0.987 ± 0.022
same,NP40-soluble protein abundance,DOHH; concentration: 1mM,0.977 ± 0.071
same,NP40-soluble protein abundance,DOHH; concentration: 2mM,0.976 ± 0.027
same,NP40-soluble protein abundance,DOHH; concentration: 4mM,0.997 ± 0.033
same,NP40-soluble protein abundance,DOHH; concentration: 6mM,0.948 ± 0.062
same,NP40-soluble protein abundance,DOHH; concentration: 8mM,0.963 ± 0.024
same,NP40-soluble protein abundance,DOHH; concentration: 10mM,0.894 ± 0.06
same,NP40-soluble protein abundance,EFHD1; concentration: 1mM,0.82 ± 0.043
same,NP40-soluble protein abundance,EFHD1; concentration: 2mM,0.831 ± 0.018
same,NP40-soluble protein abundance,EFHD1; concentration: 4mM,0.878 ± 0.02
same,NP40-soluble protein abundance,EFHD1; concentration: 6mM,0.897 ± 0.014
same,NP40-soluble protein abundance,EFHD1; concentration: 8mM,0.95 ± 0.018
same,NP40-soluble protein abundance,EFHD1; concentration: 10mM,0.9 ± 0.09
same,NP40-soluble protein abundance,FUNDC2; concentration: 1mM,0.885 ± 0.033
same,NP40-soluble protein abundance,FUNDC2; concentration: 2mM,0.913 ± 0.016
same,NP40-soluble protein abundance,FUNDC2; concentration: 4mM,0.899 ± 0.061
same,NP40-soluble protein abundance,FUNDC2; concentration: 6mM,0.929 ± 0.058
same,NP40-soluble protein abundance,FUNDC2; concentration: 8mM,0.876 ± 0.044
same,NP40-soluble protein abundance,FUNDC2; concentration: 10mM,0.88 ± 0.016
same,NP40-soluble protein abundance,IFIH1; concentration: 1mM,0.9729 ± 0.0016
same,NP40-soluble protein abundance,IFIH1; concentration: 2mM,0.9913 ± 0.0064
same,NP40-soluble protein abundance,IFIH1; concentration: 4mM,1.021 ± 0.0022
same,NP40-soluble protein abundance,IFIH1; concentration: 6mM,0.9856 ± 0.0031
same,NP40-soluble protein abundance,IFIH1; concentration: 8mM,0.961 ± 0.022
same,NP40-soluble protein abundance,IFIH1; concentration: 10mM,1.04 ± 0.024

# Reprinted at random: two records from the list
compound,measurement,setting,value
Nc1ncnc2c1ncn2[C@@H]1O[C@H](COP(=O)(O)OP(=O)(O)OP(=O)(O)O)[C@@H](O)[C@H]1O [adenosine triphosphate],NP40-soluble protein abundance,DOHH; concentration: 2mM,0.976 ± 0.027
same,NP40-soluble protein abundance,ABHD6; concentration: 4mM,0.975 ± 0.051
